The source of these data is US20260028424A1 (GRANULAR THERAPEUTICS, published 2026).

The chains behind the UniProt entries cited, without tags or fusion partners. Where a name states a change or a piece, a line headed by the entry shows the natural chain unless it says otherwise.
UniProt P10721: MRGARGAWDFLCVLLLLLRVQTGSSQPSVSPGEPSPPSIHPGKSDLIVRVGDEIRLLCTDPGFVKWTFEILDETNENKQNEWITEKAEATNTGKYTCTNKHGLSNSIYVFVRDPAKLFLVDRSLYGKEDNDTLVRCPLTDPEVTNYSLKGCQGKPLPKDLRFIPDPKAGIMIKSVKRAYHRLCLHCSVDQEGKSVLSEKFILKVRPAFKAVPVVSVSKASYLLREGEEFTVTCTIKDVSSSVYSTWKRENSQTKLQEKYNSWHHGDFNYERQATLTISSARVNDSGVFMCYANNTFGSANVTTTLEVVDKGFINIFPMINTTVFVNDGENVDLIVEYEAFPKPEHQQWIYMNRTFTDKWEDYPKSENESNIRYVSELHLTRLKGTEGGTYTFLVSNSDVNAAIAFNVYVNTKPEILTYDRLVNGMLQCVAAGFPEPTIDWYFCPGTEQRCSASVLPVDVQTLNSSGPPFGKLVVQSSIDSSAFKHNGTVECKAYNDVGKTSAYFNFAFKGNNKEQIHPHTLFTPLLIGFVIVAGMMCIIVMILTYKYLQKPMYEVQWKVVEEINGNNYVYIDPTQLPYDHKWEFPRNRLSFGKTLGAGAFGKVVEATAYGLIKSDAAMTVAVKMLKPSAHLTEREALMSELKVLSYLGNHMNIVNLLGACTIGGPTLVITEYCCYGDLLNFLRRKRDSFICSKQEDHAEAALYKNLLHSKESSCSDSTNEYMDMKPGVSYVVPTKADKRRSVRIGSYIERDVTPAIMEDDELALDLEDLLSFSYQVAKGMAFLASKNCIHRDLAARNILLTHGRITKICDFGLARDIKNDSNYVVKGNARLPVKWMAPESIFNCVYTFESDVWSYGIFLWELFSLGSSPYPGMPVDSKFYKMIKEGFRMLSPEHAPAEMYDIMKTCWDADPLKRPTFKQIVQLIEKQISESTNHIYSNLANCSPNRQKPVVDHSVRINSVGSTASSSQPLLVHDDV

Substitutions are numbered along the chain they refer to. No constants are given. Whether binding was seen depends on the method and setting. Some binding calls cover weakened binding; strength is not graded here.

Assay [1] concerns the target cyno c-Kit (SPR) (cyno). Kind of assay: SPR, single-cycle kinetics. A general note: In SPR one partner is held on a chip, and binding of the other changes the refractive index at the surface.
The target of assay [2] is c-Kit (antigen of the binding assay of FIG. 9A) (Homo sapiens (Human)) (UniProt P10721). Kind of assay: plate binding assay on Human c-KIT, A450-A630 (ratio corrected).

B1: MH1/F6.12 bispecific (parental, before pI engineering) (bispecific antibody, V domains shown)
VH 1: QVQLVQSGAEVKKPGASVKVSCKASGYTFTDYYMNWVRQAPGQGLEWMGRIYPGSGNTYYAQKFQGRVTMTRDTSTSTVYMELSSLRSEDTAVYYCARGVYYYDYWGQGTLVTVSS
VH 2: EVQLVQSGAEVKKPGESLKISCKGSGYRFASNWIGWVRQMPGKGLEWMGEIYPGDSNTRYSPSFQGQVTISADKSISTAYLQWSSLKASDTAMYYCARKDYYYGIMDVWGQGTTVTVSS
VL: DIQMTQSPSSLSASVGDRVTITCRASQGIRTNLAWFQQKPGKAPKSLIYAASSLQSGVPSRFSGSGSGTDFTLTISSLQPEDFATYYCQQYNSYPRTFGGGTKVEIK
notes: Knob-in-hole IgG1null bispecific with human Ckappa; also called parental bispecific MH1/F6.12
As to B1, the binding entry in assay [1] is “binds”.

B2: MH1_C/F6.12_D bispecific (pI-engineered) (bispecific antibody, V domains shown)
VH 1: B1 VH 1 with K13E, K63N
VH 2: B1 VH 2 with E1Q, S85R
VL: B1 VL
notes: Knob-in-hole IgG1null bispecific with human Ckappa
On to B2, for which the binding entry in assay [1] is reported as “binds”.

B3: F6/MH1 common light chain bispecific (anti-CD203c F6 x anti-c-Kit MH1) (bispecific antibody, V domains shown)
VH 1: B1 VH 1
VH 2: B1 VH 2 with G104Y, I105A
VL: B1 VL
notes: Knob-in-hole IgG1null bispecific with human Ckappa; also called F6/MH1 bispecific molecule
With B3, the binding result in assay [2] was “binds”.
